Experiment: general procedure: solution-phase peptide synthesis; OSu active esters with NEM in DMF

| Substance | isolated yield (whole synthesis, Total yield from A) [%] | step yield (coupling step) [%] |
| --- | --- | --- |
| Cbz-pGlu-Glu(γ-OBzl)-Gly-Ser(Bzl)-Asp(OBzl)₂ | 33 |  |
| Boc-Glu(γ-OBzl)-Gly-Ser(Bzl)-Asp(OBzl)₂ |  | 90 |

— patent EP0360481 (dated 1990)
